Publication PMC9594975
These are yes or no findings as the source states them, for the method shown. Binding seen in cells or lysates may run through a third protein. Some binding calls cover weakened binding; strength is not graded here. Values belong to the binder of their own block, whether it stands above or below them.

Molecular target: T1, BCL2 (mouse (endogenous in osteoclast precursors of C57BL/6 mice)), P10417
T1 chain: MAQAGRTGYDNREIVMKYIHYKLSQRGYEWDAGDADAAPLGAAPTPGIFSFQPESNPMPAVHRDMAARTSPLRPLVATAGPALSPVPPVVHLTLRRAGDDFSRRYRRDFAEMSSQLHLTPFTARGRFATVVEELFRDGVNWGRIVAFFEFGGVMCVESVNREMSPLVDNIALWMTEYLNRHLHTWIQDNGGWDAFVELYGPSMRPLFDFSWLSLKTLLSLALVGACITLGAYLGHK
Experiment: co-IP; lysates of osteoclast precursors treated with metformin (0, 10, 20 uM) for 5 d with 30 ng/mL M-CSF and 50 ng/mL RANKL, with or without lentiviral BNIP3 overexpression; 100 ug total protein with 5 ug anti-BCL2 or anti-BECN1 antibody overnight at 4 C, protein A/G-sepharose beads; non-specific IgG as negative control; immunoblot
Settings: remark: other sources report otherwise

binding: binds
B1: BECN1, O88597 1-448 (protein)
chain: MEGSKASSSTMQVSFVCQRCSQPLKLDTSFKILDRVTIQELTAPLLTTAQAKPGETQEEEANSGEEPFIETRQDGVSRRFIPPARMMSTESANSFTLIGEASDGGTMENLSRRLKVTGDLFDIMSGQTDVDHPLCEECTDTLLDQLDTQLNVTENECQNYKRCLEILEQMNEDDSEQLQRELKELALEEERLIQELEDVEKNRKVVAENLEKVQAEAERLDQEEAQYQREYSEFKRQQLELDDELKSVENQVRYAQIQLDKLKKTNVFNATFHIWHSGQFGTINNFRLGRLPSVPVEWNEINAAWGQTVLLLHALANKMGLKFQRYRLVPYGNHSYLESLTDKSKELPLYCSGGLRFFWDNKFDHAMVAFLDCVQQFKEEVEKGETRFCLPYRMDVEKGKIEDTGGSGGSYSIKTQFNSEEQWTKALKFMLTNLKWGLAWVSSQFYNK

binding: binds
B2: BNIP3, O55003 1-187 (protein)
chain: MSQSGEENLQGSWVELHFSNGNGSSVPASVSIYNGDMEKILLDAQHESGRSSSKSSHCDSPPRSQTPQDTNRAEIDSHSFGEKNSTLSEEDYIERRREVESILKKNSDWIWDWSSRPENIPPKEFLFKHPKRTATLSMRNTSVMKKGGIFSADFLKVFLPSLLLSHLLAIGLGIYIGRRLTTSTSTF
